Values from PubChem BioAssay AID504804 (Drosophila RNAi Screening Center, 2011)
In all, the deposit lists about 19,000 reagents; below is an unselected part of those with a known target gene and a result. In the full data, 47 (0.25%) got an active call. 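Signals are raw, not normalised; exact z-scores behind calls not deposited; actives needed confirmation, so some wells reaching 2 SD are inactive.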 The numbers tell different reagents against one gene apart. A plus sign joins genes that one reagent is predicted to hit. No sequences are given here.

Assay: 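Fly genes whose loss lessens doxorubicin-driven cell death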 (primary screen)
Cell system: Drosophila Kc cells
Reagents: long dsRNA against Drosophila genes, 0.5 µg dsRNA per well
Duration: 96 h (48 h knock-down, then 48 h drug)
Treatment: doxorubicin 5 µg/ml for 48 h, added 48 h after dsRNA
Read-out: 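Luminescent ATP counts per replicate, not normalised, reflecting viable cells after 48 h dsRNA knock-down followed by 48 h of 5 µg/ml doxorubicin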
Reading the numbers: raw ATP luminescence: higher = more viable cells, protection from doxorubicin
Active means: 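z-score of 2 or more over plate mean in both duplicates, retained only when retests and separate dsRNAs confirm the protection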

predicted target	reagent	raw ATP luminescence, replicate 1	raw ATP luminescence, replicate 2	Outcome
CG4408	1	36917	35630	inactive
PVRAP	1	57490	66663	inactive
PVRAP	2	60703	66030	inactive
CG5569	1	56960	60233	inactive
Uros2	1	69140	51590	inactive
NANS	1	48517	55630	inactive
CG16825	1	42263	65427	inactive
Hsp60C	1	30977	27773	inactive
CG13532	1	41943	45227	inactive
phtf	1	81357	94533	inactive
CG14435	1	17760	26740	inactive
Or83a	1	61470	67173	inactive
CG17544	1	1.19e5	70407	inactive
ScpX	1	91543	80700	inactive
wds	1	38880	39320	inactive
TwdlB	1	32090	44430	inactive
Jon65Aii	1	72643	62493	inactive
CG8135 + BBIP1	1	58523	64897	inactive
CG8135 + BBIP1	2	49443	49660	inactive
CG10600	1	1.03e5	86427	inactive
CG13130 (retired record)	1	57957	64877	inactive
REPTOR-BP	1	38473	51197	inactive
CG16713	1	31623	37583	inactive
CG6191	1	44033	52883	inactive
CG8746	1	31837	57140	inactive
jumu	1	52340	54293	inactive
CHMP2B	1	47923	41540	inactive
Antdh	1	3.54e5	3.54e5	inactive
CG12541	1	1.82e5	2.29e5	inactive
CG12541	2	42030	46770	inactive

The list goes on (3 carried over from the part before).
predicted target	reagent	raw ATP luminescence, replicate 1	raw ATP luminescence, replicate 2	Outcome
Antdh	1	3.54e5	3.54e5	inactive
CG12541	1	1.82e5	2.29e5	inactive
CG12541	2	42030	46770	inactive
CG17109	1	87990	77260	inactive
Jon25Bii	1	23340	33403	inactive
CG15047	1	2.38e5	2.20e5	inactive
fd19B	1	3.97e5	2.59e5	inactive
CG11843	1	63450	48320	inactive
CG8173	1	3.01e5	3.04e5	inactive
Dop1R1	1	2.38e5	2.75e5	inactive
Dop1R1	2	93530	61260	inactive
mbf1	1	28300	25317	inactive
CG43775	1	41887	47537	inactive
GCC185	1	42107	45987	inactive
CG18747	1	59510	60840	inactive
Cyp6g1	1	70027	53903	inactive
alphaTub84B	1	56367	62897	inactive
agt	1	63197	63783	inactive
CG32457	1	64643	63863	inactive
cos	1	56897	61517	inactive
Nab2	1	40117	36383	inactive
CG42780	1	2.90e5	1.88e5	inactive
Taf4	1	16713	19567	inactive
prtp	1	1.89e5	1.94e5	inactive
wdb	1	27070	39660	inactive
nuf	1	70087	50433	inactive
fd102C	1	69750	57540	inactive
SPH93	1	61900	78780	inactive
pasi1	1	29230	25060	inactive
spict	1	98557	72800	inactive
